PubChem BioAssay AID1259405, NCATS | 2018

Aim: 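Mouse-designed siRNAs used to find CHO productivity engineering targets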 (primary screen)
Cell system: Chinese hamster CHO-K1 ovary cells with stable secreted eGFP expression
Knock-down reagent: single siRNA against mouse genes, 0.8 pmol siRNA per well (2 µl of 400 nM stock)
Timing: 3 days
Read-out: 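Per-well intracellular GFP measured by laser scanning cytometry, plus viability from ATP luminescence, each relative to plate median of non-targeting control wells, in %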
Scale: GFP, % of control: higher = more GFP per well, higher productivity; viability (ATP), % of control: higher = more viable cells (more ATP)
Call rule: 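Called active when intracellular GFP, relative to negative control, is at or above 120%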
In all, the deposit lists about 50,000 reagents; shown is an unselected part. Over the whole deposit, about 4,000 (8%) got an active call. 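Mouse siRNA library applied to hamster cells; one well for each siRNA.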 Reagents against one gene are numbered here.

After knock-down of Card11 (caspase recruitment domain family, member 11) #1, the screen gave GFP, % of control 65.6; viability (ATP), % of control 124; inactive.
Depletion of Card11 (caspase recruitment domain family, member 11) #2 resulted in: GFP, % of control 136; viability (ATP), % of control 120; active.
Cenpx (centromere protein X) #1 gave GFP, % of control 71.2; viability (ATP), % of control 42.7; inactive.
Cenpx (centromere protein X) #2 showed GFP, % of control 111; viability (ATP), % of control 120; inactive.
With knock-down of Cenpx (centromere protein X) #3, the screen gave GFP, % of control 121; viability (ATP), % of control 101; active.
Against Nat8f2 (N-acetyltransferase 8 (GCN5-related) family member 2) #1, the values are GFP, % of control 45.9; viability (ATP), % of control 60.1; inactive.
Against Nat8f2 (N-acetyltransferase 8 (GCN5-related) family member 2) #2, the values are GFP, % of control 62.2; viability (ATP), % of control 80.8; inactive.
With knock-down of Nat8f2 (N-acetyltransferase 8 (GCN5-related) family member 2) #3, the screen gave GFP, % of control 81.1; viability (ATP), % of control 57.9; inactive.
Cd200r1 (CD200 receptor 1) #1 gave GFP, % of control 99.7; viability (ATP), % of control 86; inactive.
Knock-down of Cd200r1 (CD200 receptor 1) #2 gave: GFP, % of control 137; viability (ATP), % of control 65.1; active.
Against Cd200r1 (CD200 receptor 1) #3 the deposit lists GFP, % of control 94.1; viability (ATP), % of control 71.4; inactive.
After knock-down of Cspg4 (chondroitin sulfate proteoglycan 4) #1, the screen gave GFP, % of control 79.1; viability (ATP), % of control 67.1; inactive.
For Cspg4 (chondroitin sulfate proteoglycan 4) #2, the values are GFP, % of control 58.5; viability (ATP), % of control 87.8; inactive.
Knock-down of Cspg4 (chondroitin sulfate proteoglycan 4) #3 gave: GFP, % of control 110; viability (ATP), % of control 95.1; inactive.

Hits (from the list above):
Card11 (caspase recruitment domain family, member 11) #2 → GFP, % of control = 136; viability (ATP), % of control = 120; Call = active
Cenpx (centromere protein X) #3 → GFP, % of control = 121; viability (ATP), % of control = 101; Call = active
Cd200r1 (CD200 receptor 1) #2 → GFP, % of control = 137; viability (ATP), % of control = 65.1; Call = active

Next entries:
For Cd163 (CD163 antigen) #1, the values are GFP, % of control 96.7; viability (ATP), % of control 84.5; inactive.
Against Cd163 (CD163 antigen) #2, the values are GFP, % of control 92.6; viability (ATP), % of control 70.4; inactive.
For Cd163 (CD163 antigen) #3 the deposit lists GFP, % of control 127; viability (ATP), % of control 92.9; active.
Depletion of Ptgds (prostaglandin D2 synthase (brain)) #1 came out at: GFP, % of control 102; viability (ATP), % of control 64.6; inactive.
Depletion of Ptgds (prostaglandin D2 synthase (brain)) #2 resulted in: GFP, % of control 162; viability (ATP), % of control 155; active.
For Ptgds (prostaglandin D2 synthase (brain)) #3, the entry reads GFP, % of control 151; viability (ATP), % of control 93.9; active.
Depletion of Ptgds (prostaglandin D2 synthase (brain)) #4 resulted in: GFP, % of control 76; viability (ATP), % of control 102; inactive.
Depletion of Ptgds (prostaglandin D2 synthase (brain)) #5 came out at: GFP, % of control 73.7; viability (ATP), % of control 74.8; inactive.
With knock-down of Ptgds (prostaglandin D2 synthase (brain)) #6, the record shows GFP, % of control 101; viability (ATP), % of control 76.8; inactive.
Ska1 (spindle and kinetochore associated complex subunit 1) #1 gave GFP, % of control 40.8; viability (ATP), % of control 57.3; inactive.
After knock-down of Ska1 (spindle and kinetochore associated complex subunit 1) #2, the screen gave GFP, % of control 44.7; viability (ATP), % of control 61.5; inactive.
Silencing of Ska1 (spindle and kinetochore associated complex subunit 1) #3 gave: GFP, % of control 68.6; viability (ATP), % of control 53; inactive.
Sfrp1 (secreted frizzled-related protein 1) #1 gave GFP, % of control 38.4; viability (ATP), % of control 44.8; inactive.
For Sfrp1 (secreted frizzled-related protein 1) #2, the entry reads GFP, % of control 56.6; viability (ATP), % of control 53.1; inactive.
For Sfrp1 (secreted frizzled-related protein 1) #3 the deposit lists GFP, % of control 72.5; viability (ATP), % of control 60.7; inactive.
For Dbh (dopamine beta hydroxylase) #1, the values are GFP, % of control 79; viability (ATP), % of control 79.1; inactive.
With knock-down of Dbh (dopamine beta hydroxylase) #2 the results were GFP, % of control 74.1; viability (ATP), % of control 46.1; inactive.
For Dbh (dopamine beta hydroxylase) #3, the entry reads GFP, % of control 58.4; viability (ATP), % of control 51.7; inactive.
Kmt5b (lysine methyltransferase 5B) #1 showed GFP, % of control 29.5; viability (ATP), % of control 40.4; inactive.
Kmt5b (lysine methyltransferase 5B) #2 gave GFP, % of control 93.8; viability (ATP), % of control 126; inactive.
Silencing of Kmt5b (lysine methyltransferase 5B) #3 came out at: GFP, % of control 104; viability (ATP), % of control 92; inactive.
Or6k4 (olfactory receptor family 6 subfamily K member 4) #1 gave GFP, % of control 15.1; viability (ATP), % of control 16.7; inactive.
For Or6k4 (olfactory receptor family 6 subfamily K member 4) #2 the deposit lists GFP, % of control 97.6; viability (ATP), % of control 104; inactive.
For Or6k4 (olfactory receptor family 6 subfamily K member 4) #3, the values are GFP, % of control 101; viability (ATP), % of control 69.8; inactive.
Silencing of Or52ad1 (olfactory receptor family 52 subfamily AD member 1) #1 gave: GFP, % of control 232; viability (ATP), % of control 114; active.
Depletion of Or52ad1 (olfactory receptor family 52 subfamily AD member 1) #2 resulted in: GFP, % of control 103; viability (ATP), % of control 90.3; inactive.
Silencing of Or52ad1 (olfactory receptor family 52 subfamily AD member 1) #3 gave: GFP, % of control 59.3; viability (ATP), % of control 75.5; inactive.
